At least one compound was matched to its structure with a doubt left.
Assays:
[1] = target: α1-adrenergic; experiment: Receptor binding α1-adrenergic; details: rat; radioligand [3H]-prazosin
[2] = target: somatostatin; experiment: Receptor binding somatostatin; details: mouse; radioligand [125I]-somatostatin
[3] = target: Tumor necrosis f.; experiment: Receptor binding Tumor necrosis f.; details: rat; radioligand [125I]-TNFα
[4] = target: Ca++-channel; experiment: Binding Ca++-channel ([3H]-diltiazem); details: rat; radioligand [3H]-diltiazem
[5] = target: Interleukine-8; experiment: Receptor binding Interleukine-8; details: human; radioligand [125I]-interleukine-8
[6] = target: melatonin; experiment: Receptor binding melatonin; details: chicken; radioligand [125I]-2-iodomelatonin
[7] = target: GABAA; experiment: Receptor binding GABAA; details: rat; radioligand [3H]-muscimol
[8] = target: Ca++-channel; experiment: Binding Ca++-channel ([3H]-nitrendipine); details: rat; radioligand [3H]-nitrendipine
[9] = target: α2-adrenergic; experiment: Receptor binding α2-adrenergic; details: rat; radioligand [3H]-RX 821002
[10] = target: sigma; experiment: Receptor binding sigma; details: rat; radioligand [3H]-DTG
[11] = target: Ca++-channel; experiment: Binding Ca++-channel ([3H]-D-888); details: rat; radioligand [3H]-D-888
[12] = test system: abdominal constrictions due to colorectal distention; experiment: Colorectal distension in rats after sensitization with acetic acid (visceral pain model); type: in vivo
[13] = target: Ca++-channel; experiment: Binding Ca++-channel ([3H]-devapamil); details: rat; radioligand [3H]-devapamil
[14] = target: tryptamine; experiment: Receptor binding tryptamine; details: rat; radioligand [3H]-tryptamine
[15] = test system: 5-HT1D; experiment: Functional serotonin receptor activity, 5-HT1D; type: biochemical
[16] = test system: hot plate latency; experiment: Hot plate test (acute pain model); type: in vivo, mice; details: i.p.; morphine 7.5 mg/kg, compound 1 0.1 mg/kg, sumatriptan 10 mg/kg
Procedure: Hot plate test in mouse or rat according to Eddy and Leimbach (J. Pharmacol. Exp. Ther. 1953, 107: 385-393): Mice or rats are placed onto a hot metal plate maintained at 54° C. for mice or 52° C. for rats surrounded by a Plexiglas cylinder (Height: 13 cm; Diameter: 19 cm). The latency to the first foot-lick is measured (maximum: 30 seconds).
Compound 1 and other compounds were tested on the hotplate 30 minutes after intraperitoneal administration. A description of the method is given above.

Chains of the proteins cited; added tags and fusions are not shown.
UniProt P08908, whole entry, species assumed: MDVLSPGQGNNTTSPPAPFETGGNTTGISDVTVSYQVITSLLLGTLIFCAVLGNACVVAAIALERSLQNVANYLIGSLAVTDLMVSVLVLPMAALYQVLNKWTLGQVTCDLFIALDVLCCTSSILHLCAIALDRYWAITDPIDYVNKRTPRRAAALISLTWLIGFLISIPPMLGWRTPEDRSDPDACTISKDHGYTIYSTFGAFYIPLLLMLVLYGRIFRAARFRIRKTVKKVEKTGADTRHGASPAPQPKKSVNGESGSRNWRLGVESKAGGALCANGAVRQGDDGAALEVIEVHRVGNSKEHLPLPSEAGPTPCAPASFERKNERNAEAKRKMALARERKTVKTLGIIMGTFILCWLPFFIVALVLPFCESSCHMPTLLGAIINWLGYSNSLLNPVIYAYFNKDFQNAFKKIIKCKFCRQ
UniProt P34969, whole entry, species assumed: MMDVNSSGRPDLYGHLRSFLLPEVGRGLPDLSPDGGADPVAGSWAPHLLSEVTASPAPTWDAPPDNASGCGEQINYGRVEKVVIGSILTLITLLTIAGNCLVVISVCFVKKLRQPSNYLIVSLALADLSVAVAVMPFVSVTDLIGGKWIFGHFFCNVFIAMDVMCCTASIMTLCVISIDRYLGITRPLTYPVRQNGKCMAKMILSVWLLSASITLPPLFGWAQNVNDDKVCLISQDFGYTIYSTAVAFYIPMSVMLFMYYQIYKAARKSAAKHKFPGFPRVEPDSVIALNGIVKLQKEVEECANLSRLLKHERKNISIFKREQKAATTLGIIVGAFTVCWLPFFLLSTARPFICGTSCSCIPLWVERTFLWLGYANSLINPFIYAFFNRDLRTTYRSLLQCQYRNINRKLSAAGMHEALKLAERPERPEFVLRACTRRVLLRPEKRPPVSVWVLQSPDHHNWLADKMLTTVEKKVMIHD

[17] = target: benzodiazepine; experiment: Receptor binding benzodiazepine; details: rat; radioligand [3H]-diazepam
[18] = target: 5-HT1A (Homo sapiens, UniProt P08908); experiment: Functional serotonin receptor activity, 5-HT1A; type: biochemical
[19] = target: 5-HT7 (Homo sapiens, UniProt P34969); experiment: Functional serotonin receptor activity, 5-HT7; type: biochemical
[20] = target: TRH; experiment: Receptor binding TRH; details: rat; radioligand [3H]-TRH
[21] = target: bombesin; experiment: Receptor binding bombesin; details: rat; radioligand [125I]-bombesin
[22] = target: Na+-channel; experiment: Binding Na+-channel; details: rat; radioligand [3H]-bathrachotoxinin
[23] = target: T1, K+-channel; experiment: Binding K+-channel ([125I]-apamin); details: rat; radioligand [125I]-apamin
T1 construct: Ki; other: rat; radioligand [125I]-apamin

[24] = test system: pain; experiment: Experimental animal models of pain (general statement); details: in vivo
[25] = target: T2, K+-channel; experiment: Binding K+-channel ([125I]-α-dendrotoxin); details: rat; radioligand [125I]-α-dendrotoxin
T2 construct: Ki; other: rat; radioligand [125I]-α-dendrotoxin

[26] = target: melanocortin; experiment: Receptor binding melanocortin; details: human; radioligand [125I]-NDP-a-MSH
[27] = target: NMDA; experiment: Receptor binding NMDA; details: rat; radioligand [3H]-CGS 19755

Q: Which results are given for `Nc1cc2cccc(N3CCNCC3)c2oc1=O` [Compound 1, 3-amino-8-(1-piperazinyl)-2H-1-benzopyran-2-one]?
A: Ki [1]: > 1000 nM; Ki [2]: > 1000 nM; Ki [3]: > 1000 nM; Ki [4]: > 10000 nM; Ki [5]: > 1000 nM; Ki [6]: > 10000 nM; Ki [7]: > 10000 nM; Ki [8]: > 10000 nM; Ki [9]: > 1000 nM; Ki [10]: > 1000 nM; Ki [11]: 130 nM; visceral hypersensitivity (abdominal constrictions during colorectal distention) ([12]; 0.1 μmol/kg, 90 min after administration): reduced the visceral hypersensitivity; inhibition of the number of abdominal contractions due to colorectal distention ([12]; dose range between 3 and 10 μmol/kg, 90 minutes after subcutaneous administration): significant inhibition; Ki [13]: > 10000 nM; Ki [14]: > 10000 nM; functional 5-HT1D activity [15]: 5-HT1D-antagonistic activity; analgesic effect in the hot plate test (in words) [16]: as effective as morphine; Ki [17]: > 10000 nM; functional 5-HT1A activity [18]: potent 5-HT1A-agonistic; functional 5-HT7 activity [19]: 5-HT7-agonistic activity; Ki [20]: > 10000 nM; Ki [21]: > 1000 nM; Ki [22]: > 10000 nM; Ki [23]: > 1000 nM; activity in experimental animal models of pain [24]: potently active; Ki [25]: > 1000 nM; Ki [26]: > 1000 nM; Ki [27]: > 10000 nM

Reference: patent US20050215567A1, “1-[2H-1-benzopyran-2-one-8-yl]-piperazine derivatives for the treatment of pain” (SOLVAY PHARMACEUTICALS B.V., priority 2004, published 2005)
